# The list shows a part of the results.
# Sequences of proteins named here, by UniProt entry; tags and fusion partners are left off. A change or cut given only in a name is not applied to a line headed by its entry.
# UniProt P57678: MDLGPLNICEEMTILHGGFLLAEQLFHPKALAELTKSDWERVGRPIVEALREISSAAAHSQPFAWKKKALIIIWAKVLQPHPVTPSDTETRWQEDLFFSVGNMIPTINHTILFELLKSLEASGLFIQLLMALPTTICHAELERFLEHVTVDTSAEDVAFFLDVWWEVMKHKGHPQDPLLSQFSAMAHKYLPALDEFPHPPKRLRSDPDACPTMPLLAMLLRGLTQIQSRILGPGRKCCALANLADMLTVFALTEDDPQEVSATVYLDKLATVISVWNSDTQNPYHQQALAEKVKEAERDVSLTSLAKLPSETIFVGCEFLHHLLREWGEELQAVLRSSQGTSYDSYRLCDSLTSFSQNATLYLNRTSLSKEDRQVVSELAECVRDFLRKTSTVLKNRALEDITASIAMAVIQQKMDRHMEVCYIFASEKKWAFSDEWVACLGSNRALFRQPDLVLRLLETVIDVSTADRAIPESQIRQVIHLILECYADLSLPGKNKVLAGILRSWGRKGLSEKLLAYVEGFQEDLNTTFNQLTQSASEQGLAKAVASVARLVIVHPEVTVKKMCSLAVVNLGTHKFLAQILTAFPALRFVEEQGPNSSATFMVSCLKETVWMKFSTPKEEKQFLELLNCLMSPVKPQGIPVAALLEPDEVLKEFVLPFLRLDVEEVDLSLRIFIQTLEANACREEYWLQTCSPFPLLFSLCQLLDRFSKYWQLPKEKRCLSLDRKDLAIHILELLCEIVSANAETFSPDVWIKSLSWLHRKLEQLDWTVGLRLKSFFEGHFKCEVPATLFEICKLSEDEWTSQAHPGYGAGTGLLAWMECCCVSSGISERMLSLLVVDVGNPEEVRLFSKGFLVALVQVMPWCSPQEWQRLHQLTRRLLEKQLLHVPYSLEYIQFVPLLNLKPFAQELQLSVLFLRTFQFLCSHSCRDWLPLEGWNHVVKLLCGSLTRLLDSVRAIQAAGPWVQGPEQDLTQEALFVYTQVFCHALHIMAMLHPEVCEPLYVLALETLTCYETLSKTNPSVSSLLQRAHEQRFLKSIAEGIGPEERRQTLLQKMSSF
# UniProt Q8N3Z3: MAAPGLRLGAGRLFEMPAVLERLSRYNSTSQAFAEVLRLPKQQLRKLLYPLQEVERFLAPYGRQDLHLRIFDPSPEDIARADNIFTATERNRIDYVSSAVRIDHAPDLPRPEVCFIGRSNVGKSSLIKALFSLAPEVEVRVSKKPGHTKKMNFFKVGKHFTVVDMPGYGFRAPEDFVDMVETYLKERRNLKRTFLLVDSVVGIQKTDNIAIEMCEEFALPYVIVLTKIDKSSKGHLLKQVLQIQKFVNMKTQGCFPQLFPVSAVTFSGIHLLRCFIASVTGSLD
# UniProt Q9NXN4: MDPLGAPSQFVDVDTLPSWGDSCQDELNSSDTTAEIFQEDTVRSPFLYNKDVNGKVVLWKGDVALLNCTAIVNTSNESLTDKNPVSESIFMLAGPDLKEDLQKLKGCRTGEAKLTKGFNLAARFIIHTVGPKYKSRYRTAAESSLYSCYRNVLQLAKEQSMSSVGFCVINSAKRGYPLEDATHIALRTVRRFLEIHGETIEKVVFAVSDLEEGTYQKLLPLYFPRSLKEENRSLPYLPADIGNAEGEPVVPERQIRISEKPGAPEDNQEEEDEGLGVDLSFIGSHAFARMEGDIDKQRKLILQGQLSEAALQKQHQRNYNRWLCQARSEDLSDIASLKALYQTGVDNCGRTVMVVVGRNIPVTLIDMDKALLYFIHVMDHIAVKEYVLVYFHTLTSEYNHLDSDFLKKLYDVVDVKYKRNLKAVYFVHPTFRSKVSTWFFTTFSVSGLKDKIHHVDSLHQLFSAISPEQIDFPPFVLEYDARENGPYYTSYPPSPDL
# UniProt Q9P2D3: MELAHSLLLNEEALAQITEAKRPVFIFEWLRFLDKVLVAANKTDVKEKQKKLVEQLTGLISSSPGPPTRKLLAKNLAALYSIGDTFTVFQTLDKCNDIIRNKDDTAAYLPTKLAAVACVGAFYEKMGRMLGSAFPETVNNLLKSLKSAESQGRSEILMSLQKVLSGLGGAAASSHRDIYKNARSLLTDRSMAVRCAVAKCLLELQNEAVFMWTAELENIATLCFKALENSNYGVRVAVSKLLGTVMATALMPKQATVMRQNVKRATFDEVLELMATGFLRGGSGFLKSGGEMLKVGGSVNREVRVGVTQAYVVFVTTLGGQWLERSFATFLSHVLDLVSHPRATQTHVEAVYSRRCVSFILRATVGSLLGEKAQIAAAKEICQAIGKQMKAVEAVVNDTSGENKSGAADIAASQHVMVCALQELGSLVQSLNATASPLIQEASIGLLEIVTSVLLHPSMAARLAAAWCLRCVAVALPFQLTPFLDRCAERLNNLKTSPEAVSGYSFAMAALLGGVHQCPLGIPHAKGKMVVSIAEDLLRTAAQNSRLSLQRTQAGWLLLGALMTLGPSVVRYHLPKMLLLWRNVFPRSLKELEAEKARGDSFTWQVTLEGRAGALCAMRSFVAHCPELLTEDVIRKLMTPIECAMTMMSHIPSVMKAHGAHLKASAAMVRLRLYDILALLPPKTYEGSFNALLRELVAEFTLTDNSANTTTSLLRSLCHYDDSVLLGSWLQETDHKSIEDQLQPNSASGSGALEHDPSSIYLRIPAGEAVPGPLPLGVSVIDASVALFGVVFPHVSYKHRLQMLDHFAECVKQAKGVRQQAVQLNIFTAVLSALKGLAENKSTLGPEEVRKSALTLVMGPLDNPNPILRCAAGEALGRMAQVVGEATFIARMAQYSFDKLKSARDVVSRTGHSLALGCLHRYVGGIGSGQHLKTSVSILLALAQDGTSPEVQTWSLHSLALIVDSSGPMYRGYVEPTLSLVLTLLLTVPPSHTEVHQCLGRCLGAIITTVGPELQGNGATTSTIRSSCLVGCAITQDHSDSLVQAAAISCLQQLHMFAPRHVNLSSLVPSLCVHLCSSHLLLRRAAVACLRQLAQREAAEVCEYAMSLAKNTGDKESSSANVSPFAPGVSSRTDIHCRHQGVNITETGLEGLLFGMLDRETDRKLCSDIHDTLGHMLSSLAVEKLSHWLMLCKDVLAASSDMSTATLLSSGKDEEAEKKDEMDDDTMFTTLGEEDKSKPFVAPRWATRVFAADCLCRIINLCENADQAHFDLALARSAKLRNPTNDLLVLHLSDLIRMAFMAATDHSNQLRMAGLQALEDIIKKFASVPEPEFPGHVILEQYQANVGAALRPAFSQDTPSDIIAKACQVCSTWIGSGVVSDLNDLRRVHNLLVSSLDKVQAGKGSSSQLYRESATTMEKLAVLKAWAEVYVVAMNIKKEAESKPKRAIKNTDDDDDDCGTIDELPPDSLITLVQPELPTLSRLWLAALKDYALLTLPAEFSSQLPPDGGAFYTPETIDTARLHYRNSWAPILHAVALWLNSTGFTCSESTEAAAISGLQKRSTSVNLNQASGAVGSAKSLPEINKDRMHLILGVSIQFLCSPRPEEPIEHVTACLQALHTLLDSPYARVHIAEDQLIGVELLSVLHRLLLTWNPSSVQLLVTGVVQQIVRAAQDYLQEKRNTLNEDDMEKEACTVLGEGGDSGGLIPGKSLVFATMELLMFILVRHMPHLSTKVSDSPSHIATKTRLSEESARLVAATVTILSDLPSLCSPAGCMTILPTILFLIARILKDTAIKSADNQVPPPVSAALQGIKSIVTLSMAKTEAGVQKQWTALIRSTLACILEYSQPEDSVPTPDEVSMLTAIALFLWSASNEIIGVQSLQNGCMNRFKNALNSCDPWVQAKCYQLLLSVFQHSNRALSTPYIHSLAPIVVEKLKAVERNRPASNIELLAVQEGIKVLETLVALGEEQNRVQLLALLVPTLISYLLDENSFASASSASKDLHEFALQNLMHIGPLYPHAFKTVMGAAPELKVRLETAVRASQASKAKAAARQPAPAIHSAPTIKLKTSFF
# UniProt Q9BW71: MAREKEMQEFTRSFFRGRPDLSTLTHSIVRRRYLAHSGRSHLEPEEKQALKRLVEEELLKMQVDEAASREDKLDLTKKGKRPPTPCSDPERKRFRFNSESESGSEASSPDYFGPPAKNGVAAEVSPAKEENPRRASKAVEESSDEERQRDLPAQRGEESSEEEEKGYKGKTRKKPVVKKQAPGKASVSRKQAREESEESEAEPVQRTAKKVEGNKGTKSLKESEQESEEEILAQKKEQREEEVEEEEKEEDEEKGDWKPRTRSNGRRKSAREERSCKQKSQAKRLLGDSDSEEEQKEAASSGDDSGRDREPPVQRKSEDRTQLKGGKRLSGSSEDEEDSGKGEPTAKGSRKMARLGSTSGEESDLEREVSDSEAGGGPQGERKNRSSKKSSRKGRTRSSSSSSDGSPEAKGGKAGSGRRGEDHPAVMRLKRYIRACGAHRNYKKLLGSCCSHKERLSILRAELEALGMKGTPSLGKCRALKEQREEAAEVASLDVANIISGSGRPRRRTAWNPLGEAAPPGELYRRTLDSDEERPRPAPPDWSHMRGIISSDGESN
# UniProt P13807: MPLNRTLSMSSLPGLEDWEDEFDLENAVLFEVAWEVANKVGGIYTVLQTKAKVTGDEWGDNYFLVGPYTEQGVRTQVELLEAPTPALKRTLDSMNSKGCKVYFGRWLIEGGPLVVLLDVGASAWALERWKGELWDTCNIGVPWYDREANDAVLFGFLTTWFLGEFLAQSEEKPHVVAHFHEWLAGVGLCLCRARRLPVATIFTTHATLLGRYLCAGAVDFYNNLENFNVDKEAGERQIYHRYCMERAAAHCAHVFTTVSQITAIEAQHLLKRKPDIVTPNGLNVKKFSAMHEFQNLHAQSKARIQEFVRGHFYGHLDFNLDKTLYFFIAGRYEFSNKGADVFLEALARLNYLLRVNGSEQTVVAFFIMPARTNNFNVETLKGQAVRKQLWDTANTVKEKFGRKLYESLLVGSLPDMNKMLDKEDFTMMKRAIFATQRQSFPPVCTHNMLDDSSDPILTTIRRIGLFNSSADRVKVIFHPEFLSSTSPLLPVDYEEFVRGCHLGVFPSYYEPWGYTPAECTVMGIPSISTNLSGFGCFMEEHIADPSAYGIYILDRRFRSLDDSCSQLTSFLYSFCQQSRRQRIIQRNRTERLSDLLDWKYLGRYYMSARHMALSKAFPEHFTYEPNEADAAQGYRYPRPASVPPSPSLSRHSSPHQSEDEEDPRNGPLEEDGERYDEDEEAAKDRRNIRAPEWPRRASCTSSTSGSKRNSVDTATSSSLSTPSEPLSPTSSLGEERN
# UniProt P52655, whole entry: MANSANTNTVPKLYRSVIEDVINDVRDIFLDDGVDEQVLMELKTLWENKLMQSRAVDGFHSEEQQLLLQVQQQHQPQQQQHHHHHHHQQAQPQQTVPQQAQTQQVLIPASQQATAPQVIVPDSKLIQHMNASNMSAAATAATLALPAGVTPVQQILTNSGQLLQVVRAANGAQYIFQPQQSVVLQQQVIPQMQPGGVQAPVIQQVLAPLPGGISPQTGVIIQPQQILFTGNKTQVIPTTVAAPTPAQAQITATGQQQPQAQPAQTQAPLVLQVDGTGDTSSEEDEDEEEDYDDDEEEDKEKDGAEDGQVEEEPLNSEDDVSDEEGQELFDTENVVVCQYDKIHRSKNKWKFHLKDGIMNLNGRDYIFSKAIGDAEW
# UniProt Q9BX68: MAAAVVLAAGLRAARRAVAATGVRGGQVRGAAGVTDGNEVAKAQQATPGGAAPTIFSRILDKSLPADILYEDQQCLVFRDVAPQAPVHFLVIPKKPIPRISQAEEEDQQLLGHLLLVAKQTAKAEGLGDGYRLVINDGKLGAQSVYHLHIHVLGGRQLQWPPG
# UniProt Q7Z4Q2: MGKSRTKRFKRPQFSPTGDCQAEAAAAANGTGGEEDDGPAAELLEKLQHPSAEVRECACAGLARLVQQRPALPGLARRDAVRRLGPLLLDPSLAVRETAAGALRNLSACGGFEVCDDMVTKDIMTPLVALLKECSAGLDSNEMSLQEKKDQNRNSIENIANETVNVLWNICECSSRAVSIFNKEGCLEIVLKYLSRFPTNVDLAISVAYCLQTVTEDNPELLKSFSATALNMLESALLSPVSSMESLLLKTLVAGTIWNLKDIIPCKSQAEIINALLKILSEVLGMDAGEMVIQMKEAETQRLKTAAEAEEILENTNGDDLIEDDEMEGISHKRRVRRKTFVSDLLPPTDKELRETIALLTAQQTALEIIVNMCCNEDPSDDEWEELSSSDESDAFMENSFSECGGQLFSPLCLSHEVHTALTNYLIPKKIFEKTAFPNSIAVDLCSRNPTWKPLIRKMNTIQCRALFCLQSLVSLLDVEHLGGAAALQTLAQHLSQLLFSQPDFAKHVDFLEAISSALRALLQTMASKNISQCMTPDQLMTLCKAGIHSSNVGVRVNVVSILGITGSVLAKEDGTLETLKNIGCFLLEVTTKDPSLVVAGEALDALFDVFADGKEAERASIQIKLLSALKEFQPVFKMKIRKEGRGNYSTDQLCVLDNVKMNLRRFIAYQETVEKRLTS
# UniProt P69905, whole entry: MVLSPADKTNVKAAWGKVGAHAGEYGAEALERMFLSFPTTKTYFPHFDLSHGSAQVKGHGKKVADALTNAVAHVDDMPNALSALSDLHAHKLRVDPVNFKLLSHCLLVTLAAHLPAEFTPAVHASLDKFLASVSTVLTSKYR
# Compound: COc1ccc(Cn2ccc3ccc(C(=O)NO)cc32)cc1
# Test: dose-dependent thermal stabilisation call (2D-TPP, DLPTP, 10% FDR) (binary (1 = stabilised)); higher = stabilised by the compound
# Settings: system: HL-60 intact cells; concentration range 0.04-10 µM
row,Target,dose-dependent thermal stabilisation call
1,GPX4 (UniProt P36969),inactive: 0
2,GNL2 (UniProt Q13823),inactive: 0
3,GM2A (UniProt P17900),inactive: 0
4,GEMIN4 (UniProt P57678),inactive: 0
5,GCC2 (UniProt Q8IWJ2),inactive: 0
6,HDAC4 (UniProt P56524),inactive: 0
7,GUSB (UniProt P08236),inactive: 0
8,GTPBP8 (UniProt Q8N3Z3),inactive: 0
9,GNPDA2 (UniProt Q8TDQ7),inactive: 0
10,GPBP1 (UniProt Q86WP2),inactive: 0
11,GDF1 (UniProt P27539),inactive: 0
12,HAX1 (UniProt O00165),inactive: 0
13,GPN2 (UniProt Q9H9Y4),inactive: 0
14,GPATCH8 (UniProt Q9UKJ3),inactive: 0
15,GGA1 (UniProt Q9UJY5),inactive: 0
16,GDAP2 (UniProt Q9NXN4),inactive: 0
17,HCG_18290,inactive: 0
18,HCG_2033311,inactive: 0
19,GPR172A (UniProt Q9HAB3),inactive: 0

# Some of the entries above, set out differently.
row | Target | dose-dependent thermal stabilisation call
1 | GPX4 (UniProt P36969) | inactive: 0
2 | GNL2 (UniProt Q13823) | inactive: 0
4 | GEMIN4 (UniProt P57678) | inactive: 0
5 | GCC2 (UniProt Q8IWJ2) | inactive: 0
7 | GUSB (UniProt P08236) | inactive: 0
9 | GNPDA2 (UniProt Q8TDQ7) | inactive: 0
10 | GPBP1 (UniProt Q86WP2) | inactive: 0
12 | HAX1 (UniProt O00165) | inactive: 0
13 | GPN2 (UniProt Q9H9Y4) | inactive: 0
14 | GPATCH8 (UniProt Q9UKJ3) | inactive: 0
18 | HCG_2033311 | inactive: 0

# Additional results follow:

row,Target,dose-dependent thermal stabilisation call
1,HEATR5B (UniProt Q9P2D3),inactive: 0
2,HBS1L (UniProt Q9Y450),inactive: 0
3,HIRIP3 (UniProt Q9BW71),inactive: 0
4,HLCS (UniProt P50747),inactive: 0
5,GYS1 (UniProt P13807),inactive: 0
6,GTF2A1 (UniProt P52655),inactive: 0
7,HINT2 (UniProt Q9BX68),inactive: 0
8,HEATR3 (UniProt Q7Z4Q2),inactive: 0
9,GLUD1 (UniProt P00367),active: 1
10,GNAI1 (UniProt P63096),inactive: 0
11,HELLS (UniProt Q9NRZ9),inactive: 0
12,HEATR1 (UniProt Q9H583),inactive: 0
13,GTF2F1 (UniProt P35269),inactive: 0
14,HBA1 (UniProt P69905),inactive: 0
15,GEMIN8 (UniProt Q9NWZ8),inactive: 0
16,GPAM (UniProt Q9HCL2),inactive: 0
17,GTPBP3 (UniProt Q969Y2),inactive: 0
18,GRPEL2 (UniProt Q8TAA5),inactive: 0
19,HERC2 (UniProt O95714),inactive: 0
